# Laboratory results as given in the supplement of paper PMC10849652.
# By UniProt entry, the sequences of proteins in these tests, tags left out. Where a name states a change or a piece, a line headed by the entry shows the natural chain unless it says otherwise.
# UniProt P68400, whole entry, looked up: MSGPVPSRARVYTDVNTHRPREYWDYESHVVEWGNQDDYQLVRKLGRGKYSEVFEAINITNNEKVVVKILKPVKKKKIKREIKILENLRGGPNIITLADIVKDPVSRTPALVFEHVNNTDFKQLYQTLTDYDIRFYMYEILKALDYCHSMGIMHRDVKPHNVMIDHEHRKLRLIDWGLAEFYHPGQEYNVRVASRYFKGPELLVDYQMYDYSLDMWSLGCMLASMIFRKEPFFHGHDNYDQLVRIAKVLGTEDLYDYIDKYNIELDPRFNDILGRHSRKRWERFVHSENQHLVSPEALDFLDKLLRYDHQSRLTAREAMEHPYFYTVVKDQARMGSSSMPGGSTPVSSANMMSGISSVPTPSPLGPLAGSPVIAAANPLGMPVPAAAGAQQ
# UniProt P41240: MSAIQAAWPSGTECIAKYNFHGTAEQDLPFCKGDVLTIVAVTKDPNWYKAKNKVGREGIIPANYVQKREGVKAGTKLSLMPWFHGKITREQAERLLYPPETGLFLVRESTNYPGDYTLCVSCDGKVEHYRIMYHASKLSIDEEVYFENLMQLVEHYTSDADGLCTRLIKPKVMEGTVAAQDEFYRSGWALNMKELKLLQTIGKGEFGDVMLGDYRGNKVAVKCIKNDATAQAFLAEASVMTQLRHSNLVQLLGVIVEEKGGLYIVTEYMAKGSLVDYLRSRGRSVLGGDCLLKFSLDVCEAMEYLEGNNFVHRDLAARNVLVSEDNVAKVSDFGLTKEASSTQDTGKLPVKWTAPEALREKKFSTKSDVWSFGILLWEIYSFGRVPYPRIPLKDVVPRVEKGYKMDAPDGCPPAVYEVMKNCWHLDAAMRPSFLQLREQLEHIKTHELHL
# UniProt P10606, whole entry, looked up: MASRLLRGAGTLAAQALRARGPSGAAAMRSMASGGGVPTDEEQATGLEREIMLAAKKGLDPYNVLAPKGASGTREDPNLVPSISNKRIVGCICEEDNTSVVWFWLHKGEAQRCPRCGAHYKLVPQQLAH
# UniProt A4D126: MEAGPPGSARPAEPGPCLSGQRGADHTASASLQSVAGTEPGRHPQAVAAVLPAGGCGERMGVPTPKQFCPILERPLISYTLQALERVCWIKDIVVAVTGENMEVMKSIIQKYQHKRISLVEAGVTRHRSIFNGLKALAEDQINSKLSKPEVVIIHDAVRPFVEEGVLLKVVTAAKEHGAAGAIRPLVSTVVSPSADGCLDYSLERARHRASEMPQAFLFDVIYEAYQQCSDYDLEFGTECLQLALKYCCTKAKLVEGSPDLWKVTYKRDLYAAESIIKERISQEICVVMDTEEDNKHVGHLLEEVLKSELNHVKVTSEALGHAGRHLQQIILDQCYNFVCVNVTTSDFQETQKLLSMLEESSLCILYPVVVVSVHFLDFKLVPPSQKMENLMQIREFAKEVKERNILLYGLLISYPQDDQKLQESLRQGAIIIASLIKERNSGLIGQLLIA
# UniProt Q9Y2Z9: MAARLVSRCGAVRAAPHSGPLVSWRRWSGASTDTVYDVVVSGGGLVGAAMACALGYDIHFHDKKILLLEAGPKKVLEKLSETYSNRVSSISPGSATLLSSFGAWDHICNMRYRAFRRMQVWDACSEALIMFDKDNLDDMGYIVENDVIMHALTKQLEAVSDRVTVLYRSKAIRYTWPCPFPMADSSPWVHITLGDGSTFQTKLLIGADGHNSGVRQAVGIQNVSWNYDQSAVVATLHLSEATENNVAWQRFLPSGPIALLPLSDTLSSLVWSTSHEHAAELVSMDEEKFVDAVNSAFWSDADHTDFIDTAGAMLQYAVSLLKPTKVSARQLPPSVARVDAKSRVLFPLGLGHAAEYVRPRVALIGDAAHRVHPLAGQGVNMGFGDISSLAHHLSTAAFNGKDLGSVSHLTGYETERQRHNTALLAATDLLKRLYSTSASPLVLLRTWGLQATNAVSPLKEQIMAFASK
# UniProt P20674, whole entry, looked up: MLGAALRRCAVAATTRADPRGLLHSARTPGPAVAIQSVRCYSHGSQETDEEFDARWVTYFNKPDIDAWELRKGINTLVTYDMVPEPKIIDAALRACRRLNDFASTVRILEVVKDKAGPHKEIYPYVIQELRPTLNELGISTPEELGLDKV
# UniProt P09669, whole entry, looked up: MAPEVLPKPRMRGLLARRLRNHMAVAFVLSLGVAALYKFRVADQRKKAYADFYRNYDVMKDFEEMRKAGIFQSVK
# UniProt Q86VX2, whole entry, looked up: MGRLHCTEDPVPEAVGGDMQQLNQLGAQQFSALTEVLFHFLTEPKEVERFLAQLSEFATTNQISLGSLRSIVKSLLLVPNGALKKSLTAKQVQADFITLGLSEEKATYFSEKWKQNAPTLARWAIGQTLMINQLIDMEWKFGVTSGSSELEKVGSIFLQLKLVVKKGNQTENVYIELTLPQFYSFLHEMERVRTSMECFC
# UniProt Q9Y6M4: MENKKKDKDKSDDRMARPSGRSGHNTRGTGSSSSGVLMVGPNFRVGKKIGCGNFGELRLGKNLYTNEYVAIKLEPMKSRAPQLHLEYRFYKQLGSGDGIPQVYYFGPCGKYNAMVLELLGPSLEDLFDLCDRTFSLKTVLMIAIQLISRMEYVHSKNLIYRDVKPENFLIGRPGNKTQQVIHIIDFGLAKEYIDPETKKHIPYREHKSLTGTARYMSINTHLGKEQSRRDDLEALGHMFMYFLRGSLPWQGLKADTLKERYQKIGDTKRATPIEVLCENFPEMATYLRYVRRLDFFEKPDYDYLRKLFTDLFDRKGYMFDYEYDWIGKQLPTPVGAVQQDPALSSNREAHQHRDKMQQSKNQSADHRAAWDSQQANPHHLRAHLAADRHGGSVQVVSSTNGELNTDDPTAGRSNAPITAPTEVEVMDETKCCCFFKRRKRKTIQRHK
# UniProt Q8N752: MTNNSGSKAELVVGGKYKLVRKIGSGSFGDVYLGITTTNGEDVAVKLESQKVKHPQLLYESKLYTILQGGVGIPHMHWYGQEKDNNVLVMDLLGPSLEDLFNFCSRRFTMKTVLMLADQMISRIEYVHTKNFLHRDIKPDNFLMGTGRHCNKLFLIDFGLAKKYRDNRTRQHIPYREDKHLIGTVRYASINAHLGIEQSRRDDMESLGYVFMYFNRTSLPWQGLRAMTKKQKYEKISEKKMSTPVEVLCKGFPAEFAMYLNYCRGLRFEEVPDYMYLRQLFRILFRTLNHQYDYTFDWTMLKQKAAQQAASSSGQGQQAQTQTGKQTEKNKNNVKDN
# UniProt Q9Y646: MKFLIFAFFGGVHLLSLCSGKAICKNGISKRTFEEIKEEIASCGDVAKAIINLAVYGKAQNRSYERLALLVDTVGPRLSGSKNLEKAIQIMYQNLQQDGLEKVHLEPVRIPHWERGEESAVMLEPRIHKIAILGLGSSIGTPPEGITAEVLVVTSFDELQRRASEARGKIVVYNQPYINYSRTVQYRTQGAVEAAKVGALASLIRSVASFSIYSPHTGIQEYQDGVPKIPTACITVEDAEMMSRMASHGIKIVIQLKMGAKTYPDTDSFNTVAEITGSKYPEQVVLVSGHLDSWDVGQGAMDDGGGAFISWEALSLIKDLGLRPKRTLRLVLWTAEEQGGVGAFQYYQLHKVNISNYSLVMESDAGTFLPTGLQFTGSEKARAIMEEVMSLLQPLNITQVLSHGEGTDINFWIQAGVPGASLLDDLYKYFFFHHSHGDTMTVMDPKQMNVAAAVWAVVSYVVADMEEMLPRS
# UniProt P61201: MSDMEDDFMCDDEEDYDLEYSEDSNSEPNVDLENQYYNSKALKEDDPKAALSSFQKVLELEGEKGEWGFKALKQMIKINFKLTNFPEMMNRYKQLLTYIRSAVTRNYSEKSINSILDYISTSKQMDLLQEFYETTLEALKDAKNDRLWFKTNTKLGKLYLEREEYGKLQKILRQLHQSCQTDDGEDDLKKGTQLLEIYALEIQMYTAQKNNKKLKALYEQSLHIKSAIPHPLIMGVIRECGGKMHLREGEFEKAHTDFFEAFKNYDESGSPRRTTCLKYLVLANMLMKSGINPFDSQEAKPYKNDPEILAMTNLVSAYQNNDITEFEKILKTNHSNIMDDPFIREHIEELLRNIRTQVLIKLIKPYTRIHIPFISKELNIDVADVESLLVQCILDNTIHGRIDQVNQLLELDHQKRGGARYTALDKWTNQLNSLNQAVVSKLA
# UniProt P16220: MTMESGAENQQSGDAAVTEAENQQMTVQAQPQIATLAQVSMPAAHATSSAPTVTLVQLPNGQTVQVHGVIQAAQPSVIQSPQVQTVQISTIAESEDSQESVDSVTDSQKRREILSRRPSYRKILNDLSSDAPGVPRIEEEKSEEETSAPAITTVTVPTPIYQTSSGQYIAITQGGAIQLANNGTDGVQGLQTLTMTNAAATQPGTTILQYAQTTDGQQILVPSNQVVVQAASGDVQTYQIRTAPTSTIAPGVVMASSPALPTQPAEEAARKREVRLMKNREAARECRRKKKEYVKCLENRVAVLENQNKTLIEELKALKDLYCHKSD
# UniProt P31327: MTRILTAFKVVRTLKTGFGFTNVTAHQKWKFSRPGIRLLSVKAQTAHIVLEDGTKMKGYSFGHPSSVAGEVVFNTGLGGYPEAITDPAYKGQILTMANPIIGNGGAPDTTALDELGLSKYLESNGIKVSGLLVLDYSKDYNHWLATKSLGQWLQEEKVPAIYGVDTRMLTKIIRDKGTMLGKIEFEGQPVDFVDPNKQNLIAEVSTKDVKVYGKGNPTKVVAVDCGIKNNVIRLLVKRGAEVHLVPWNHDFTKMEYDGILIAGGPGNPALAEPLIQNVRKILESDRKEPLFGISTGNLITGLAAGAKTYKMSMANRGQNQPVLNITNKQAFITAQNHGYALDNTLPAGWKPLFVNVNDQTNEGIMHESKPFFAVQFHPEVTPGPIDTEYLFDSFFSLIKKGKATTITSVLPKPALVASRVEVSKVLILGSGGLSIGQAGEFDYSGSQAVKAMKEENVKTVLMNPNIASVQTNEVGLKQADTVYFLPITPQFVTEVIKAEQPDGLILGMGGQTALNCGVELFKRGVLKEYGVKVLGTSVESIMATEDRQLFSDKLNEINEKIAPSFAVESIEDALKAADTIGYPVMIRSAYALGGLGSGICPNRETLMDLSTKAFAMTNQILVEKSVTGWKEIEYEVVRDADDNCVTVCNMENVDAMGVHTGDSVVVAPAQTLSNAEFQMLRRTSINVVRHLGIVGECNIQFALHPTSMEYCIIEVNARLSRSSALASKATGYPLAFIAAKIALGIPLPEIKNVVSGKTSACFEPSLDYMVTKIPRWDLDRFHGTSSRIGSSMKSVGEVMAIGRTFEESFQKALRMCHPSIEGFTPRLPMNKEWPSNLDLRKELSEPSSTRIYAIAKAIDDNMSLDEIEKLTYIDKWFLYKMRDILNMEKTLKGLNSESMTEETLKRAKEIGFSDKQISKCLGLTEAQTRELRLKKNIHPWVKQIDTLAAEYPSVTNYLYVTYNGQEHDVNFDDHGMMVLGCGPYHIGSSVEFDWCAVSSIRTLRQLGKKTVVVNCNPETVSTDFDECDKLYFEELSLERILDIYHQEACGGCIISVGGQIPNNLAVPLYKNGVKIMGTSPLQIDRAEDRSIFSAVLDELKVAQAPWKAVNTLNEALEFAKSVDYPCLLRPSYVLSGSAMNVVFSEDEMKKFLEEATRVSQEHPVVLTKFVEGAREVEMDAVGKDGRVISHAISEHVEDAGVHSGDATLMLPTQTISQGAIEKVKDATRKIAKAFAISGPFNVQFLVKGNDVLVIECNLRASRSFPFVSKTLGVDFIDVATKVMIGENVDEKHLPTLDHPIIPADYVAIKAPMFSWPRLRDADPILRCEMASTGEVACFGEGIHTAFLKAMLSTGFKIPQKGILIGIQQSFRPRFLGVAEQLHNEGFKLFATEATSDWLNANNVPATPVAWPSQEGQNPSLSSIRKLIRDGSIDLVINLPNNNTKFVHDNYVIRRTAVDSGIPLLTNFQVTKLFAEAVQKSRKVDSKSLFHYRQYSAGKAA
# UniProt Q9BSW2: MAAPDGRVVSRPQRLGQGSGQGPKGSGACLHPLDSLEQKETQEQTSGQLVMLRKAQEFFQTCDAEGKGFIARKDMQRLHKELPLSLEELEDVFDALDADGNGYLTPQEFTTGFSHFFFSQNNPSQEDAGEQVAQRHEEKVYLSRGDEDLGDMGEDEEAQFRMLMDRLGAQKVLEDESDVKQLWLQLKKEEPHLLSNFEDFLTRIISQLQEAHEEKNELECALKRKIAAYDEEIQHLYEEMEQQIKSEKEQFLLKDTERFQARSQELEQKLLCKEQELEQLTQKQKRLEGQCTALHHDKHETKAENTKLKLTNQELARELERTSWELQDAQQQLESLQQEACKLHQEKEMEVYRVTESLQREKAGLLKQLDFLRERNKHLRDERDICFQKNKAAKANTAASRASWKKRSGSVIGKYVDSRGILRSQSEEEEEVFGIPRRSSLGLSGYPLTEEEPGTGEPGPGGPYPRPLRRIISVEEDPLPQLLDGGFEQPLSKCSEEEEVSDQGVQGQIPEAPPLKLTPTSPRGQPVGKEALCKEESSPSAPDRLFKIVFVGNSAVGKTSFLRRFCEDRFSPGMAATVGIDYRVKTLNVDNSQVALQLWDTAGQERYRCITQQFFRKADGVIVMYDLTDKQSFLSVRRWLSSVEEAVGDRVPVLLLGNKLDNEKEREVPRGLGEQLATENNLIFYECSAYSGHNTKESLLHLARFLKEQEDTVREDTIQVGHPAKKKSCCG
# The other results are listed elsewhere or left out.
# Key:
# Assay in all cases: log2 fold change, soluble protein after heating vs DMSO (PISA); higher = thermal stabilisation; K562 cells, 10 uM, 30 min; active = over 0.2 and 3.5 SD of the protein, either way, in both replicates (recomputed)
# [1] = compound: CC1=C(C=C(C=C1)NC(=O)C2=CC(=CC=C2)C(C)(C)C#N)NC3=CC4=C(C=C3)N=CN(C4=O)C
# Method in brief: (§1)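 Quantification of soluble protein used TMTpro 16plex LC-MS/MS, with channel sums equalised. Samples were the supernatant after 21,000xg for 90 min of pooled aliquots from K562 cells (2×10^6 cells/mL) treated with 10 μM compound for 30 min, heated for 3 min over 48°C-58°C, and extracted in PBS with 0.5% NP-40 at 4°C. Values, from duplicates, describe thermal stability against control samples on a log2 fold-change scale.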
# [2] = compound: CC1=C(C=C(C=C1)NC(=O)C2=CC(=CC=C2)N(C)C)NC(=O)C3=CC=C(C=C3)O
# Method in brief: as §1
# [3] = compound: CC1=CC=C(C=C1)SC2=C3C=C(SC3=CN=C2)C(=O)N
# Method in brief: as §1
# [4] = compound: CC1=NC(=CC=C1)C2=C(N=C(N2)C(C)(C)C)C3=CC4=NC=CN=C4C=C3
# Method in brief: as §1
# Nexturastat A = compound: CCCCN(Cc1ccc(C(=O)NO)cc1)C(=O)Nc1ccccc1 [Nexturastat A]
# Method in brief: as §1
# vemurafenib = compound: CCCS(=O)(=O)Nc1ccc(F)c(C(=O)c2c[nH]c3ncc(-c4ccc(Cl)cc4)cc23)c1F [vemurafenib]
# Method in brief: as §1
# [5] = compound: CCCS(=O)(=O)Nc1ccc(F)c(C(=O)c2c[nH]c3ncc(Cl)cc23)c1F
# Method in brief: as §1
# [6] = compound: CCCc1cc(C)[nH]c(=O)c1CNC(=O)c1cc(-c2ccnc(N3CCN(C)CC3)c2)cc2c1cnn2C(C)C
# Method in brief: as §1
# givinostat = compound: CCN(CC)Cc1ccc2cc(COC(=O)Nc3ccc(C(=O)NO)cc3)ccc2c1 [givinostat]
# Method in brief: as §1
# barasertib = compound: CCN(CCCOc1ccc2c(Nc3cc(CC(=O)Nc4cccc(F)c4)[nH]n3)ncnc2c1)CCOP(=O)(O)O [barasertib]
# Method in brief: as §1
Target,log2 fold change [1],log2 fold change [2],log2 fold change [3],log2 fold change [4],log2 fold change (Nexturastat A),log2 fold change (vemurafenib),log2 fold change [5],log2 fold change [6],log2 fold change (givinostat),log2 fold change (barasertib)
CSNK2A1 (UniProt P68400),inactive: -0.047,inactive: -0.004,inactive: -0.044,inactive: 0.025,inactive: 0.034,inactive: 0.006,inactive: 0.008,inactive: -0.018,inactive: -0.003,inactive: -0.024
CSK (UniProt P41240),active: 0.325,inactive: -0.091,inactive: -0.01,inactive: 0.019,inactive: -0.046,inactive: 0.072,inactive: 0.054,inactive: 0.034,inactive: 0.035,inactive: 0.004
CORO1C isoform 3 (UniProt Q9ULV4),inactive: 0.004,inactive: 0,inactive: -0.016,inactive: 0.064,inactive: -0.044,inactive: 0.069,inactive: 0.038,inactive: 0,inactive: -0.112,inactive: -0.007
COX5B (UniProt P10606),inactive: -0.038,inactive: -0.096,inactive: 0.037,inactive: -0.008,inactive: -0.043,inactive: 0.037,inactive: -0.044,inactive: 0.013,inactive: 0.065,inactive: 0.034
COX18 (UniProt Q8N8Q8),inactive: 0,inactive: -0.019,inactive: 0.103,inactive: -0.022,inactive: 0.047,inactive: 0.069,inactive: -0.046,inactive: -0.004,inactive: 0.029,inactive: 0.032
CRPPA (UniProt A4D126),inactive: -0.021,inactive: -0.038,inactive: 0.103,inactive: -0.044,inactive: -0.07,inactive: -0.034,inactive: -0.012,inactive: -0.024,inactive: 0.012,inactive: -0.009
COQ6 (UniProt Q9Y2Z9),inactive: 0.01,inactive: -0.061,inactive: 0.118,inactive: 0.044,inactive: -0.171,inactive: 0.018,inactive: 0.143,inactive: -0.065,inactive: -0.027,inactive: 0.018
COPB1 (UniProt P53618),inactive: 0.052,inactive: -0.033,inactive: 0.015,inactive: 0.01,inactive: -0.084,inactive: 0.034,inactive: 0.044,inactive: 0.003,inactive: 0.024,inactive: 0.007
COPZ1 isoform 4 (UniProt P61923),inactive: 0.023,inactive: -0.045,inactive: 0.023,inactive: -0.024,inactive: -0.004,inactive: 0.051,inactive: 0.035,inactive: -0.007,inactive: -0.039,inactive: 0.092
CPPED1 (UniProt Q9BRF8),inactive: 0.014,inactive: 0.027,inactive: 0.014,inactive: 0.007,inactive: -0.004,inactive: 0.023,inactive: 0,inactive: -0.083,inactive: -0.025,inactive: -0.009
COX5A (UniProt P20674),inactive: -0.005,inactive: -0.074,inactive: 0,inactive: -0.016,inactive: 0.072,inactive: 0.165,inactive: -0.114,inactive: -0.093,inactive: -0.092,inactive: 0.085
CPSF2 (UniProt Q9P2I0),inactive: 0.001,inactive: -0.066,inactive: -0.001,inactive: 0.029,inactive: 0.163,inactive: -0.019,inactive: -0.021,inactive: -0.261,inactive: -0.02,inactive: -0.022
CROCC (UniProt Q5TZA2),inactive: 0.008,inactive: 0.043,inactive: 0.005,inactive: -0.01,inactive: -0.165,inactive: -0.009,inactive: -0.009,inactive: 0.016,inactive: 0.042,inactive: 0.046
CPSF1 (UniProt Q10570),inactive: -0.017,inactive: 0,inactive: -0.123,inactive: -0.083,active: 0.453,inactive: -0.115,inactive: 0.014,inactive: -0.005,inactive: 0.058,inactive: -0.024
COPG2 (UniProt Q9UBF2),inactive: 0.033,inactive: -0.038,inactive: -0.002,inactive: -0.01,inactive: 0.028,inactive: 0.011,inactive: 0.018,inactive: 0.016,inactive: -0.012,inactive: 0.025
COX6C (UniProt P09669),inactive: 0.008,inactive: -0.017,inactive: 0.012,inactive: 0.015,inactive: -0.095,inactive: 0.003,inactive: -0.025,inactive: -0.04,inactive: -0.005,inactive: -0.001
COMMD7 (UniProt Q86VX2),inactive: -0.045,inactive: 0.009,inactive: -0.04,inactive: -0.043,inactive: -0.008,inactive: 0.035,inactive: 0.029,inactive: -0.031,inactive: 0.006,inactive: -0.021
CSNK1G3 (UniProt Q9Y6M4),inactive: 0.104,inactive: -0.038,inactive: -0.005,inactive: 0,inactive: 0.184,inactive: -0.069,inactive: 0.037,inactive: 0.042,inactive: -0.002,inactive: -0.09
CSNK1A1L (UniProt Q8N752),inactive: 0.031,inactive: 0.025,inactive: -0.019,inactive: 0.031,inactive: 0.004,inactive: -0.003,inactive: 0.052,inactive: 0.078,inactive: -0.017,inactive: -0.044
CPQ (UniProt Q9Y646),inactive: 0.001,inactive: 0.025,inactive: -0.005,inactive: -0.005,inactive: -0.016,inactive: 0.043,inactive: 0.006,inactive: 0.024,inactive: 0.011,inactive: -0.002
CS (UniProt O75390),inactive: -0.026,inactive: -0.002,inactive: 0.014,inactive: 0.07,inactive: -0.125,inactive: 0.023,inactive: 0.033,inactive: 0,inactive: -0.041,inactive: 0.027
CPNE3 (UniProt O75131),inactive: 0.024,inactive: -0.048,inactive: -0.036,inactive: 0.002,inactive: -0.026,inactive: -0.022,inactive: -0.014,inactive: -0.012,inactive: -0.027,inactive: 0.036
CPSF7 isoform 3 (UniProt Q8N684),inactive: 0.015,inactive: 0.001,inactive: 0.014,inactive: 0.012,inactive: -0.003,inactive: 0.018,inactive: 0.007,inactive: -0.016,inactive: 0.01,inactive: -0.044
COPS2 (UniProt P61201),inactive: 0.009,inactive: 0,inactive: 0.017,inactive: 0.03,inactive: -0.063,inactive: 0.039,inactive: 0.03,inactive: 0.015,inactive: -0.034,inactive: -0.017
CRYZL1 (UniProt O95825),inactive: 0.024,inactive: 0.029,inactive: -0.041,inactive: 0.016,inactive: -0.066,inactive: -0.024,inactive: -0.002,inactive: -0.022,inactive: -0.003,inactive: -0.004
CREB1 (UniProt P16220),inactive: -0.023,inactive: -0.003,inactive: -0.044,inactive: 0.018,inactive: -0.211,inactive: 0.022,inactive: -0.055,inactive: -0.045,inactive: -0.155,inactive: 0.005
CPS1 isoform 3 (UniProt P31327),inactive: -0.096,inactive: -0.022,inactive: 0.126,inactive: 0.192,inactive: -0.012,inactive: 0.247,inactive: 0,inactive: -0.097,inactive: 0.076,inactive: 0.051
CORO1A (UniProt P31146),inactive: 0.046,inactive: -0.047,inactive: 0,inactive: -0.012,inactive: 0.021,inactive: 0.081,inactive: -0.023,inactive: 0,inactive: 0.052,inactive: 0.051
CPED1 (UniProt A4D0V7),inactive: 0.012,inactive: 0.034,inactive: -0.062,inactive: -0.025,inactive: 0.164,inactive: -0.044,inactive: -0.071,inactive: -0.15,inactive: 0.051,inactive: -0.08
CRACR2A isoform 2 (UniProt Q9BSW2),inactive: -0.004,inactive: -0.024,inactive: 0.024,inactive: 0.023,inactive: -0.059,inactive: -0.011,inactive: -0.029,inactive: 0.067,inactive: 0.078,inactive: 0.004

# Just log2 fold change (Nexturastat A), log2 fold change [1] and log2 fold change [2], for some of the entries so far:
Target | log2 fold change (Nexturastat A) | log2 fold change [1] | log2 fold change [2]
COPB1 (UniProt P53618) | inactive: -0.084 | inactive: 0.052 | inactive: -0.033
COPZ1 isoform 4 (UniProt P61923) | inactive: -0.004 | inactive: 0.023 | inactive: -0.045
